Reference: the supplement of paper PMC6119338
Some of the results follow. Most values come without repeats; read them as rough.

test system: Plasmodium berghei sporozoites; test: residual sporozoite gliding motility relative to DMSO control; higher = less inhibition of motility; details: 10 µM; incubation time 30 min

Residual sporozoite gliding motility, > 50%:
CC1CC(C)CN(C(=O)c2ccc(Cl)cc2Cl)C1 (stereo not drawn), O=C(Nc1ccc(Cl)cc1C(=O)Nc1ccncc1)c1ccc(Cl)cc1Cl, COc1cccc(Nc2nc(NCCO)c3ccccc3n2)c1, O=C(O)C1Cc2c([nH]c3ccccc23)C(c2ccc(Cl)cc2Cl)N1 (stereo not drawn), CCOC(=O)c1cnc2ccc(CC)cc2c1O, CCCOCc1cc(CN2CCN(c3cccc(Cl)c3)CC2)c(O)c2ncccc12, CC(C)(C)CC(C)(C)NCC(O)COc1ccc2c(c1)CCC2 (stereo not drawn), COc1cccc(NC(=O)Cn2c(C)c(C#N)c3ccccc32)c1, COc1ccccc1C(=O)ON=C(N)Cc1cccc2ccccc12, O=c1cc(NC2CCN(CCCc3ccccc3)CC2)c2cc(Cl)ccc2o1, Cn1c(=O)n(C)c2cc(CNCCNc3ccnc4cc(Cl)ccc34)ccc21, Cc1ccc(-c2cc3c(SCC(=O)Nc4cc(C(F)(F)F)ccc4Cl)nccn3n2)cc1, Nc1ccc(-c2nc3cc(Oc4ccc(Oc5ccc6[nH]c(-c7ccc(N)cc7)nc6c5)cc4)ccc3[nH]2)cc1, CN(C)c1ccc(N2C(N)=NC(N)=NC2(C)C)cc1, Cc1cc(=O)oc2c1ccc1oc(C(=O)c3ccccc3)c(C)c12, COc1ccc(C(=O)NC(c2ccccc2Cl)c2cc(Cl)c3cccnc3c2O)cc1 (stereo not drawn), CN1CCN(c2ccc(Nc3c4ccccc4nc4ccccc34)cc2)CC1, CCCCCCc1cc2cc(-c3nc4ccccc4[nH]3)c(=Nc3ccccc3C)oc2cc1O
